Measurements: publication PMC7755716
The exact form of at least one protein or probe is not confirmed. The direction of at least one scale is not stated here. Where a protein sequence is shown, tags need not be part of it.

Target: T1, DtxR (UniProt Q8NP95)
T1 sequence (looked up, limits assumed): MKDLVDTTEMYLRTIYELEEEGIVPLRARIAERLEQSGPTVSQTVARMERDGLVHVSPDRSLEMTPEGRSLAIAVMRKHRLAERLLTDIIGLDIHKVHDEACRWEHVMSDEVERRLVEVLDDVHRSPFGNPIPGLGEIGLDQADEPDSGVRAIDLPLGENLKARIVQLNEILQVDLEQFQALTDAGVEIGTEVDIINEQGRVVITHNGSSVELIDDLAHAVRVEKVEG
Experiment: EMSA
Conditions: 150 uM Mn2+, 5 mM Mg2+; 50 mM Tris-HCl pH 7.5, 5 mM MgCl2, 40 mM KCl, 5% glycerol, 1 mM DTT, 150 uM MnCl2; 30 min at room temperature; 200 ng DNA, 0-350 ng DtxR dimer in 10 ul; recombinant protein; label: none (SYBR Green I stain); probe letters rebuilt from the primers and the genome

For “GTTGAGGGCGACGATGCGCTGTTCATCGGAGGAGGATGAAGAGGTGCTTGATTCCGCTGAGGATGAAGAAGATGAGGAAGCGGAGGAGTTTTGGTTTTGAGAGGATTGCGCGCAGGCAGTTACAGCAAGGGTGGTGGCGCCGAGCAGTGTGCCGAGGAATGCGCGCCGGCTAATCTCCATATGCATAGGCAAAAGGTACCCTTGCCTAAATAATTTTGCAAAATCGAAGCGTAGGGGGACGTCGAAAAGCAATGCCTTTTTGGAAGGCGCACGGCGCCGAGGTGCAGCTTTGGGTGAAGAAGTATTTTTCGGCACACGTGTGATTCAGGTCAGCCTTAATGTAATGCTGCTAGAGTGAACTTCCGTGACTGATTTTTCTAGTGCTTCAAATGCTGACGA (double strand) [NCgl1959 regulatory region, C-14G (399 bp)]”, the binding signal (% of wild-type affinity) was 40.
